The values below come from publication PMC6948969.

Amino acid sequences for entries named in this document (tags omitted). Residues count along the entry.
UniProt P02769, 25-607: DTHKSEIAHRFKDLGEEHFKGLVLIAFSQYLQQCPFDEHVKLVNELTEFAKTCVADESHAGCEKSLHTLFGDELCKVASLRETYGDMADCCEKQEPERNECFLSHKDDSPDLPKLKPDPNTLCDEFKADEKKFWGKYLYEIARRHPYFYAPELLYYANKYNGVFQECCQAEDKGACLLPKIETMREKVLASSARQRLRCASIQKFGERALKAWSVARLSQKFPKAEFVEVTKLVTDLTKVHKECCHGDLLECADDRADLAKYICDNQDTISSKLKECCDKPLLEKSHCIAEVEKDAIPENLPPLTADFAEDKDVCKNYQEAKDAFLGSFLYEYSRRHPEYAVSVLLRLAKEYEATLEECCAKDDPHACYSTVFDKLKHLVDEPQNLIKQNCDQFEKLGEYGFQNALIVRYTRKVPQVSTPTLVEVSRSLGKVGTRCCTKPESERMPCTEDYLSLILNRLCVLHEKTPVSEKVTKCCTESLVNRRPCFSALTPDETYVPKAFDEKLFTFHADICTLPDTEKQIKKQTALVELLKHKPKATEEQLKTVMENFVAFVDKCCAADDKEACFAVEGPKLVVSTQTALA

For some assays here: Negatives hold for the conditions tested. For some assays here: The exact form of at least one protein or probe is not confirmed. For some assays here: Weaker means in comparison with the reference protein, sequence or condition of that experiment. For some assays here: Protein sequences can lack the tags named with them.

Data set [1] deals with T1, Xyr1 (Xylanase regulator 1) (UniProt G0RLE8).
T1 sequence (looked up, limits assumed): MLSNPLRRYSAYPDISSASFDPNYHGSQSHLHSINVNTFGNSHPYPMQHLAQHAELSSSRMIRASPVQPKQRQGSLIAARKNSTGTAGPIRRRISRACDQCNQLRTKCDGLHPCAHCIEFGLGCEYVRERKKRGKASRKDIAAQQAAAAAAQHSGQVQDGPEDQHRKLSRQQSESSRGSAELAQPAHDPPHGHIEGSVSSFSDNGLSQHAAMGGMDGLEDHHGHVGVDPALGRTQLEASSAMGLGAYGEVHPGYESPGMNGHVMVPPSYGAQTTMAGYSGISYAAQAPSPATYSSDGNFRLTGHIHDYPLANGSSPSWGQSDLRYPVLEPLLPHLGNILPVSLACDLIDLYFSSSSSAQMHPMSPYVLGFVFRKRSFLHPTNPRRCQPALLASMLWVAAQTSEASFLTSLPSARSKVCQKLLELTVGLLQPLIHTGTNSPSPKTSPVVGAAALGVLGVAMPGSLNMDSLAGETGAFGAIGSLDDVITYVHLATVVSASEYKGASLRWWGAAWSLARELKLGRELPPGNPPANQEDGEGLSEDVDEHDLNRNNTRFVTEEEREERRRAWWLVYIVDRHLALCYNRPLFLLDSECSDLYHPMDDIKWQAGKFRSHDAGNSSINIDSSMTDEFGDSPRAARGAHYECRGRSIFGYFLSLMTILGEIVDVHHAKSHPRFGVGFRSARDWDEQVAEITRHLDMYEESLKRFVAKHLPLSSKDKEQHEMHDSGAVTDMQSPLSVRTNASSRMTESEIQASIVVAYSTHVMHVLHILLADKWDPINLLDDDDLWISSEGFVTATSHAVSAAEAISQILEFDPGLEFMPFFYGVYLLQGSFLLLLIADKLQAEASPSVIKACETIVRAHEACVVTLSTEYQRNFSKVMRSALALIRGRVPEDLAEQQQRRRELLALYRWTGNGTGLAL
Briefly: competition with a labelled probe. To be noted: equimolar unlabelled XRE does not weaken shift of XBS probe; EMSA/RNA-EMSA: 10 mM Tricine, 50 mM NaCl, pH 7.4, 22 C, 10 min; gel 0.5x TBE, 4 C; recombinant protein.

In another data set the target is BSA (UniProt P02769). Briefly: EMSA. As to conditions: 8-fold molar excess BSA; EMSA/RNA-EMSA: 10 mM Tricine, 50 mM NaCl, pH 7.4, 22 C, 10 min; gel 0.5x TBE, 4 C; commercial protein.

With “CACTGGATACCTACCTAGGTAGTCTGCAGCAGAAG (double strand) [XRE probe (xyr1 promoter)]”, the binding result is given as “binds more weakly” in data set [1] and “no binding” in the data set with BSA.
